This is an account of results in article PMC9271091.

Amino acid sequences for entries named in this document (tags omitted). Residues count along the entry.
UniProt P48431, 41-109 K42C: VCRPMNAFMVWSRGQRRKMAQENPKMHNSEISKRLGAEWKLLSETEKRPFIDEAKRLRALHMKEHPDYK
UniProt P48431, 41-109 K42C/W79A: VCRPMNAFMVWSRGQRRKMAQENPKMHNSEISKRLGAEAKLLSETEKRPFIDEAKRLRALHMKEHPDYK

Construct, isoform or probe ends are uncertain for at least one entry. For some assays here: A weaker result is weaker than the reference pair of the same experiment. For some assays here: At least one verdict rests on a figure or table, not on a statement of the authors.

Data set [1] concerns the target Sox2-HMGB K42C (Homo sapiens) (UniProt P48431). Put plainly: EMSA. The note with it: 10 nM DNA; room temperature, 30 min; 5% native PAGE, 0.5x TBE, 4 °C; recombinant protein; label: none (SYBR Gold stain).
The target in data set [2] is Sox2-HMGBW79A K42C,W79A (Homo sapiens) (UniProt P48431). In words: EMSA. The note with it: 10 nM DNA; room temperature, 30 min; 5% native PAGE, 0.5x TBE, 4 °C; recombinant protein; label: none (SYBR Gold stain). On the technique in general: A gel shift assay detects complexes by their altered migration in electrophoresis.

With “GGCCGCTCTAGAGATATCCCCGAGGGTCGAACCATGATGCCGGATCCCCTTTGTTATGCATCTGCCGAGGCCGCTCAATTGGTCGTAGACAGCTCTAGCACCGCTTAAACGCACGTACGCGCTGTCCCCCGCGTTTTAACCGCCAAGGGGATTACTCCCTAGTCTCCAGGCACGTGTCACATATATACATCCTGTTCCAGTGCCGGTGTCGCTTGGGTCCCGAGGATATCAAG (double strand) [233-bp 601 DNA with Sox2 motif]”, the values for the binding result in data set [1] and in data set [2] were “binds” and “binds more weakly”, respectively.
